Consider 1 molecule from PMC10558514.

Results are given in words; binding and its absence hold for the method and conditions named. Binding seen in cells or lysates may run through a third protein. Some entries that bind do so weakly or less than the wild type. Tags and fused reporters may be left off the sequences shown.

The target of test [1] is T1, Myc-YTHDF2^R-R527A (human) (UniProt Q9Y5A9).
T1 sequence: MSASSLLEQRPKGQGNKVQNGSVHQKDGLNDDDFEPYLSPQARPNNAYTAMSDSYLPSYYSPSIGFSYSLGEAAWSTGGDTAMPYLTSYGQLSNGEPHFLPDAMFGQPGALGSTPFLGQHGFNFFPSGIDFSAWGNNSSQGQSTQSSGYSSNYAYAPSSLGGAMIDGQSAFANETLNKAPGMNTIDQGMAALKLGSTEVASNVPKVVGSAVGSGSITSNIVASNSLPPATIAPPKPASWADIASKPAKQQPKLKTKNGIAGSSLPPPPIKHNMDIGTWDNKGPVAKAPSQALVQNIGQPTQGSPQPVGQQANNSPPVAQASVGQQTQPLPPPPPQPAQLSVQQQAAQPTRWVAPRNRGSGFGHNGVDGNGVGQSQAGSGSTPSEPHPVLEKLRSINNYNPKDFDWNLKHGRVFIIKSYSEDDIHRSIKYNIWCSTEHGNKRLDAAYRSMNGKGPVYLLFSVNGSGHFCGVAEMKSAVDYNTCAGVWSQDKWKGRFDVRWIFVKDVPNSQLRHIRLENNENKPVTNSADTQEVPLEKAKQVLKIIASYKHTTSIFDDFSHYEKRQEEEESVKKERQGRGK
Kind of test: co-IP; IP with α-Myc antibody from extracts of HEK293T cells transfected with Myc-YTHDF2 (WT or variant), western blot; DMSO or MG132 12 h (Fig. 3b), two days after transfection (Fig. 4a). For orientation: Immunoblotting shows a protein as a band on a membrane.

The target in test [2] is T2, Myc-YTHDF2^R-Δ169-200 (human) (UniProt Q9Y5A9).
T2 sequence: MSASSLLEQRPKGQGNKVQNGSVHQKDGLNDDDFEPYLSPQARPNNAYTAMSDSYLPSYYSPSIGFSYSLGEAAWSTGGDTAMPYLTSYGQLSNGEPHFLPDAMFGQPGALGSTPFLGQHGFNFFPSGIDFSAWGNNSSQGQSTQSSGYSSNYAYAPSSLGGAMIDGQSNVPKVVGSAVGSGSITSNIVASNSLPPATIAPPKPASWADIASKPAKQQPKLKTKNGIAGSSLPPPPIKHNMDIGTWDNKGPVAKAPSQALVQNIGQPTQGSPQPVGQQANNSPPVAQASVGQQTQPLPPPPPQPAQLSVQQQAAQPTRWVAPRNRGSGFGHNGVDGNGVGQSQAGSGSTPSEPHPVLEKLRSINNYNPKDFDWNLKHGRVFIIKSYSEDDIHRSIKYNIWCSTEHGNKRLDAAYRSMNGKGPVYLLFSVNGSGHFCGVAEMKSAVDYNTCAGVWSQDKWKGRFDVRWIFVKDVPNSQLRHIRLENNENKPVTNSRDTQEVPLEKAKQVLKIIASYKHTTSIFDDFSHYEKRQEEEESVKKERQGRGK
The description is as above.

B1: upstream frameshift 1 (UPF1), endogenous (protein, UniProt Q92900 1-1129)
chain: MSVEAYGPSSQTLTFLDTEEAELLGADTQGSEFEFTDFTLPSQTQTPPGGPGGPGGGGAGGPGGAGAGAAAGQLDAQVGPEGILQNGAVDDSVAKTSQLLAELNFEEDEEDTYYTKDLPIHACSYCGIHDPACVVYCNTSKKWFCNGRGNTSGSHIVNHLVRAKCKEVTLHKDGPLGETVLECYNCGCRNVFLLGFIPAKADSVVVLLCRQPCASQSSLKDINWDSSQWQPLIQDRCFLSWLVKIPSEQEQLRARQITAQQINKLEELWKENPSATLEDLEKPGVDEEPQHVLLRYEDAYQYQNIFGPLVKLEADYDKKLKESQTQDNITVRWDLGLNKKRIAYFTLPKTDSGNEDLVIIWLRDMRLMQGDEICLRYKGDLAPLWKGIGHVIKVPDNYGDEIAIELRSSVGAPVEVTHNFQVDFVWKSTSFDRMQSALKTFAVDETSVSGYIYHKLLGHEVEDVIIKCQLPKRFTAQGLPDLNHSQVYAVKTVLQRPLSLIQGPPGTGKTVTSATIVYHLARQGNGPVLVCAPSNIAVDQLTEKIHQTGLKVVRLCAKSREAIDSPVSFLALHNQIRNMDSMPELQKLQQLKDETGELSSADEKRYRALKRTAERELLMNADVICCTCVGAGDPRLAKMQFRSILIDESTQATEPECMVPVVLGAKQLILVGDHCQLGPVVMCKKAAKAGLSQSLFERLVVLGIRPIRLQVQYRMHPALSAFPSNIFYEGSLQNGVTAADRVKKGFDFQWPQPDKPMFFYVTQGQEEIASSGTSYLNRTEAANVEKITTKLLKAGAKPDQIGIITPYEGQRSYLVQYMQFSGSLHTKLYQEVEIASVDAFQGREKDFIILSCVRANEHQGIGFLNDPRRLNVALTRARYGVIIVGNPKALSKQPLWNHLLNYYKEQKVLVEGPLNNLRESLMQFSKPRKLVNTINPGARFMTTAMYDAREAIIPGSVYDRSSQGRPSSMYFQTHDQIGMISAGPSHVAAMNIPIPFNLVMPPMPPPGYFGQANGPAAGRGTPKGKTGRGGRQKNRFGLPGPSQTNLPNSQASQDVASQPFSQGALTQGYISMSQPSQMSQPGLSQPELSQDSYLGDEFKSQIDVALSQDSTYQGERAYQHGGVTGLSQY
For the molecule B1, the binding result in test [1] and in test [2] was “binds” throughout.
